According to publication PMC8962284:
Results are given in words; binding and its absence hold for the method and conditions named. In cells and extracts the contact can be indirect. Some binding calls cover weakened binding; strength is not graded here.

Protein sequences, listed by entry. Tags and fused reporters are not part of them.
UniProt P28698: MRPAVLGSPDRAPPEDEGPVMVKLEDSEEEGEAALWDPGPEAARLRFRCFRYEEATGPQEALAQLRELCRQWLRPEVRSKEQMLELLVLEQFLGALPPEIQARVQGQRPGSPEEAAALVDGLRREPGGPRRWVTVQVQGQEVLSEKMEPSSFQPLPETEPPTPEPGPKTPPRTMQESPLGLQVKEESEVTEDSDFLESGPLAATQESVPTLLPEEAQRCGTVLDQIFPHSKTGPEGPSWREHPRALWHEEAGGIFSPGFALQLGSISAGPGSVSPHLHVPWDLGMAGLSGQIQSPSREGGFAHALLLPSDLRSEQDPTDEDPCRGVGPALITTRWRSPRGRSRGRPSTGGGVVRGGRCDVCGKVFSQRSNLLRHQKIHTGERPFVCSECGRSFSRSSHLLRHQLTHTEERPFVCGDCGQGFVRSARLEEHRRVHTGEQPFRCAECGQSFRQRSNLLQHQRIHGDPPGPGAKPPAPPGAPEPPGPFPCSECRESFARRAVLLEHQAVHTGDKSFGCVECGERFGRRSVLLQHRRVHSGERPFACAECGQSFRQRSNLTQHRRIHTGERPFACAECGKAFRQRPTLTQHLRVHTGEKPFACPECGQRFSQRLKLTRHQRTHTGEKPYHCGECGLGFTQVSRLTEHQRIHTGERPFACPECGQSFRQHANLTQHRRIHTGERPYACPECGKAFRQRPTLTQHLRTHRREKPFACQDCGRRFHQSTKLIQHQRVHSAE

Biological target: T1, SET domain-containing protein 8 (SETD8), lysine methyltransferase 8 (human (endogenous in HGECs)) (UniProt Q9NQR1)
T1 sequence: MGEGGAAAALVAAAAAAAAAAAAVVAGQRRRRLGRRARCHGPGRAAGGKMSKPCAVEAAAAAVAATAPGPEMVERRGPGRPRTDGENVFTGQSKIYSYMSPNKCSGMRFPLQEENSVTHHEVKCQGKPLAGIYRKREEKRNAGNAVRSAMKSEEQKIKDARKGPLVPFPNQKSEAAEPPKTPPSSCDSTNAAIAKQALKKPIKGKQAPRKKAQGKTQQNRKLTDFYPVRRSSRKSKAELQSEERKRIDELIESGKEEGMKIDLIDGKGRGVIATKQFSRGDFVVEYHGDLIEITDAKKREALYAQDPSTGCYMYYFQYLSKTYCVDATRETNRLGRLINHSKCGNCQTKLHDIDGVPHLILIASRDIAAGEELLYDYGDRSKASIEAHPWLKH
Test: co-IP; endogenous IP from HGEC lysate; primary antibodies and protein A/G Dynabeads, 4 °C overnight; input, IgG and IP fractions analysed by Western blot

- binding: binds
Substance: Myeloid zinc finger 1 (MZF1) (from UniProt P28698 1-734)
